Among the data in PubChem BioAssay AID2685 (National Center for Advancing Translational Sciences (NCATS), 2010) are cell number change and AC50 values, retold here.

This experiment in a line: qHTS Assay for Lipid Storage Modulators in Drosophila S3 Cells.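 As to cell number change: cells counted by Cell Tracker Red CMTPX staining in the red channel.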 Particulars: BODIPY lipid droplet fluorescence, 18-24 h; for cell number change: measured here: cell count max response, cells fed with added oleic acid. The method, boiled down: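 Drosophila S3 cells got compounds at several concentrations plus oleic acid (400 uM solution). Laser-scanning cytometry with 488 nm excitation read lipid droplets at 500-530 nm and cells at 575-640 nm. Percent activity was relative to 20 uM Triacsin C.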
A general note: qHTS replaces the single test concentration by a dilution series.

The mark [1] stands for this setting: measured here: cell number channel AC50, cells fed with added oleic acid.
[2] abbreviates: measured here: lipid fluorescence (Fed channel) AC50, cells fed with added oleic acid.

This is one part of the list. Further columns of the screen follow, without active or inactive calls. The list favours compounds with an active or inconclusive main result. Potencies come from curve fits of mixed quality, noted in brackets.

Usually AC50 stands for the concentration at which the activity in the assay is half-maximal. A higher AC50 goes with activity only at high concentration. Turning to `COc1ccc(N2CCN(C(c3cccs3)C(C)NS(=O)(=O)c3ccccc3)CC2)cc1` (centres undefined), the cell number change came to 74.9%. Further, the AC50 under setting [1] was 16.4 µM [rising, single point].
For the molecule `CCOC(=O)c1ccc(NC(=O)C2(c3ccc(OC)cc3)CCCC2)cc1`, the AC50 under setting [2] is 4.11 µM [rising, partial curve].
Regarding `CN(C)C1(CNC(=O)C2CCN(S(=O)(=O)c3c(Cl)cccc3Cl)CC2)CCCCC1`, the cell number change was 68.7%. Moreover, under setting [1], the AC50 was 18.4 µM [rising, single point].
Take `Cn1ccnc1SCC(=O)NC12CC3CC(CC(C3)C1)C2`: the cell number change was -9.03%.
`CCOC(=O)c1ccc(Oc2nc(NC(C)(C)C)nc(N(C)C)n2)cc1`: the cell number change is -25.5%. Besides, the AC50 under setting [2] is 10.3 µM [falling, partial curve].
Take `Cc1ccc(NC(=O)Cn2c(O)c(N=NC(=O)c3ccncc3)c3ccccc32)cc1`: the cell number change is -23.2%. Besides, under setting [2], the AC50 is 29.1 µM [falling, single point].
Turning to `CCOc1ccc(NC(=O)CSc2nnc(CNC(=O)c3cccs3)o2)cc1`, the cell number change worked out at 21.5%. Also, the AC50 under setting [1] is 0.291 µM [rising, full curve, poor fit].
For the molecule `O=c1cc(N2CCOCC2)cnn1-c1ccccc1`, the cell number change was -15.3%. Under setting [1], the AC50 is 0.116 µM [falling, full curve, poor fit]. Further, the AC50 under setting [2] is 4.61 µM [rising, full curve, poor fit].
`Cc1ccc2nc(/C(C#N)=C/c3ccc(O)c(O)c3)[nH]c2c1`: the cell number change is -32%. Moreover, under setting [2], the AC50 is 29.1 µM [falling, single point].
With `Cc1ccc(C(=O)CCC(=O)OCC(=O)NNC(=O)c2ccccc2Cl)cc1`, the cell number change was -21.6%. In addition, under setting [1], the AC50 is 0.731 µM [falling, full curve, poor fit]. For the same molecule, the AC50 under setting [2] was 0.13 µM [rising, full curve, poor fit].
For `Cc1ccc(F)c(CNC(=O)C2CCC(=O)N(CCN3CCOCC3)C2)c1F` (centres undefined), the cell number change is -4.53%. Besides, the AC50 under setting [2] was 0.58 µM [rising, single point].
With `N[C@@H](Cc1ccccc1)C(=O)N1CCC(C(=O)N[C@@H](Cc2c[nH]c3ccccc23)C(=O)O)CC1`, the cell number change is 38.7%. Under setting [1], the AC50 is 10.3 µM [rising, partial curve].
Turning to `CC(C)(Oc1ccc(Cl)cc1)C(=O)Nc1ccc2oc(=O)ccc2c1`, the cell number change came out at 26.7%. Also, the AC50 under setting [2] was 6.51 µM [rising, single point].
In the case of `CCOc1cccc(CN2CCN(c3cccc(C(F)(F)F)c3)CC2)c1O`, the cell number change is -18.1%. The concentration at half-maximal activity (AC50) under setting [2] was 0.291 µM [falling, full curve, poor fit].
As to `Cc1nnc(SCC(=O)N2CC(=O)Nc3ccccc32)n1C`, the cell number change was found to be 20.7%. Moreover, the AC50 under setting [2] was 18.4 µM [falling, single point].
Consider `O=C(CN(c1ccc(Cl)c(C(F)(F)F)c1)S(=O)(=O)c1ccccc1)N/N=C/c1cccc2c1OCCO2`, for which the cell number change is -31.2%. The half-maximal activity concentration (AC50) under setting [1] was 20.6 µM [falling, single point].
As to `CCn1c(=O)c2cc(S(=O)(=O)NCc3ccccc3)ccc2n(CC)c1=O`, the cell number change is -10.9%. Further, the AC50 under setting [2] is 3.26 µM [rising, partial curve].
On to `O=C(CCC(=O)c1cccs1)Nc1ccc(N2CCCCC2)cc1`, for which the cell number change was 25.7%. Further, the AC50 under setting [2] was 29.1 µM [rising, single point].
Take `Cc1c(OCC(=O)N(C)c2ccccc2)ccc2c3c(c(=O)oc12)CCC3`: the cell number change is 7.89%.
`O=C(Nc1nc2c(s1)CCCC2)c1ccc(S(=O)(=O)N2CCCc3ccccc32)cc1`: the cell number change amounted to 6.34%. Besides, the AC50 under setting [2] was 1.84 µM [rising, partial curve, poor fit].
On to `Cc1ccc(/C=N/n2cnc3sc(C)c(C)c3c2=O)o1`, for which the AC50 under setting [1] is 1.84 µM [rising, single point].
On to `O=C(c1cc2cc(Cl)cc(Cl)c2oc1=O)N1CCOCC1`, for which the cell number change was -0.74%.
As for `COc1ccc(CN2C(=O)c3ccccc3C2OC)cc1` (centres undefined), the cell number change is -1.66%.
In the case of `O=C(CCCC(=O)N(CC(=O)NC1CCCC1)Cc1ccc2c(c1)OCO2)Nc1ccccn1`, under setting [2], the AC50 is 0.116 µM [falling, full curve, poor fit].
In the case of `COc1ccc(OC)c(-c2csc(NC(=O)Cn3[nH]c(=O)c4ccccc4c3=O)n2)c1`, the cell number change is 18.3%. Besides, under setting [2], the AC50 is 29.1 µM [falling, single point].
As to `COc1ccc(NC(=O)CSc2nc(N)c(-c3ccccc3)c(=O)[nH]2)cc1`, the cell number change is -0.773%.
`COc1ccc2c(c1OC)C(=O)OC2CC(=O)c1ccc(N(C)C)cc1` (centres undefined): the cell number change was 33.8%. In addition, the AC50 under setting [1] was 18.4 µM [rising, single point]. Further, the AC50 under setting [2] was 0.13 µM [rising, full curve, poor fit].
In the case of `COc1ccc(CN2CC(=O)N3[C@H]4c5ccccc5OC[C@@H]4[C@H](c4ccccc4)[C@]3(C)C2=O)cc1`, the cell number change was 40.6%. Besides, the AC50 under setting [1] is 25.9 µM [rising, single point].
As for `Cc1ccc(N2C(=O)CC(Sc3nc(C)cc(C)n3)C2=O)cc1` (centres undefined), the cell number change was -16.8%. In addition, the AC50 under setting [2] was 0.517 µM [rising, partial curve, poor fit].
Consider `CC1CC1C(=O)N(C)CC(=O)Nc1ccc(Cl)c(C(F)(F)F)c1` (centres undefined), for which the cell number change stood at 28%.
`Cc1cc(S(=O)(=O)N(Cc2ccccc2F)C2CC2)ccc1-n1cnnn1`: the cell number change was -24.1%. Moreover, the AC50 under setting [2] is 11.6 µM [falling, partial curve].
With `Cc1ccccc1-n1c(SCC(=O)NC2CCS(=O)(=O)C2)nc2ccccc2c1=O` (centres undefined), the cell number change is -9.61%. Further, under setting [2], the AC50 was 29.1 µM [falling, single point].
With `COc1ccc(N2CCN(C(=O)c3sc4ncn(CC(=O)N5CCCCC5C)c(=O)c4c3C)CC2)cc1` (centres undefined), the cell number change is -37.3%. Further, the concentration at half-maximal activity (AC50) under setting [1] is 16.4 µM [falling, single point].
Regarding `Cc1ccc(C)c(CN2C(=O)CSc3ccc(C(=O)NCC(C)CN4CCC(C)CC4)cc32)c1` (centres undefined), the AC50 under setting [2] was 29.1 µM [falling, single point].
In the case of `COC(=O)[C@]1(C)CCC[C@@]2(C)C3CC[C@@]4(C)C[C@]3(CCC21)CC(=O)N4Cc1ccc(OC)cc1` (some centres undefined), the cell number change is 3.82%. Moreover, under setting [2], the AC50 is 3.66 µM [falling, single point].
On to `CCc1ccc(C(=O)CSC2=C(C#N)C(c3ccco3)C(C(C)=O)=C(C)N2)cc1` (centres undefined), for which the cell number change is -54.3%. In addition, under setting [1], the AC50 was 29.1 µM [falling, single point].
Take `Cc1ccc(N2C(=O)C(NC(=O)c3ccccc3F)(C(F)(F)F)C3=C2CC(C)(C)CC3=O)cc1` (centres undefined): the cell number change was -14.2%. Also, the half-maximal activity concentration (AC50) under setting [2] was 16.4 µM [falling, single point].
Regarding `Cc1cc(NC(=O)COC(=O)C2CCN(S(=O)(=O)c3ccc(Cl)cc3)CC2)no1`, the cell number change is 35.6%. For the same molecule, under setting [1], the AC50 is 0.291 µM [rising, full curve, poor fit].
